The match of structure and compound is tentative.

Sequences of proteins named here, by UniProt entry; tags and fusion partners are left off.
UniProt P21554, whole entry: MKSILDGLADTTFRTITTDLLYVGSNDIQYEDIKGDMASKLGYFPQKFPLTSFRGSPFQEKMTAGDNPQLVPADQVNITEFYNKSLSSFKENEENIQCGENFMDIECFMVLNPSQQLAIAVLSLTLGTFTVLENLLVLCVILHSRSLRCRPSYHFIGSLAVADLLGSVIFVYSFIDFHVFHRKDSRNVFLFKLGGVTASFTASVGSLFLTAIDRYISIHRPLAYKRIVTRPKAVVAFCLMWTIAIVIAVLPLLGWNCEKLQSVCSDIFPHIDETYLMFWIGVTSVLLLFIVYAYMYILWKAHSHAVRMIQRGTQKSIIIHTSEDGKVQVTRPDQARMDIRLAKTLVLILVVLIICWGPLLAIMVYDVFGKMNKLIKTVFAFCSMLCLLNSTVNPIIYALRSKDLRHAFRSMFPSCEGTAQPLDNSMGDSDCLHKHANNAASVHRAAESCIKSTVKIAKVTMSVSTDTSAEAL

The assay has as its target human CB1 receptor (Homo sapiens, UniProt P21554). The conditions noted are these: read-out: Cannabinoid CB1 Receptor Binding IC50, SK-N-MC cell membranes, radioligand CP-55,940 0.2 nM.
Broadly, the IC50 is the concentration at which inhibition is half-maximal. `C[C@@H](NC(=O)c1nn(-c2ccc(Cl)cc2Cl)c2c1CCC/C2=C\c1cccs1)c1ccccc1`: the half-maximal inhibitory concentration (IC50) was 16 nM. The figure for `C[C@@H](NC(=O)c1nn(-c2ccc(Cl)cc2Cl)c2c1CCC/C2=C\c1ccco1)C1CCCCC1` is 42 nM; for `O=C(NN1CC2CCCC2C1)c1nn(-c2ccc(Cl)cc2Cl)c2c1CCC/C2=C\c1ccc(Br)o1` (stereo not drawn) it is 52 nM.

Values taken from US7452997B2 (priority 2004, dated 2008).
